Results reported in PMC9034549.

Protein sequences, listed by entry. Tags and fused reporters are not part of them.
UniProt Q9NS91: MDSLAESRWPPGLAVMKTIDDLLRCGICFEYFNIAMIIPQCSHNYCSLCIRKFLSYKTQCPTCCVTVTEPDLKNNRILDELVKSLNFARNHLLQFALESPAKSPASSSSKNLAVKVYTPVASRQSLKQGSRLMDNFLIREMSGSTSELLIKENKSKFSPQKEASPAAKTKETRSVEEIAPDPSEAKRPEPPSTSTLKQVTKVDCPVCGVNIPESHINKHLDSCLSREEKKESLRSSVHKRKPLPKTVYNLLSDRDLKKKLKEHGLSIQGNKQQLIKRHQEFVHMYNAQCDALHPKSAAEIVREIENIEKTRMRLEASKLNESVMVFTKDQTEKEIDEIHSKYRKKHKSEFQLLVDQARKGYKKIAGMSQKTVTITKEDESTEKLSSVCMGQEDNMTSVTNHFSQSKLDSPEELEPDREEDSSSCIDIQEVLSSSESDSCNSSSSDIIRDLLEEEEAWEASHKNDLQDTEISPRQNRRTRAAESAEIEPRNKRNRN
UniProt P12004: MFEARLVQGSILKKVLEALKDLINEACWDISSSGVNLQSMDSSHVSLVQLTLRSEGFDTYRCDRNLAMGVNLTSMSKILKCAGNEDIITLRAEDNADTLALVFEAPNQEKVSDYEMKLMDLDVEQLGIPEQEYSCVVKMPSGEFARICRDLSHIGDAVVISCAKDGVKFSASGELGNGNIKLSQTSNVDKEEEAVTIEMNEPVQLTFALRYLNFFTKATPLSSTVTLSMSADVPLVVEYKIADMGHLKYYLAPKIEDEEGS
UniProt P27694: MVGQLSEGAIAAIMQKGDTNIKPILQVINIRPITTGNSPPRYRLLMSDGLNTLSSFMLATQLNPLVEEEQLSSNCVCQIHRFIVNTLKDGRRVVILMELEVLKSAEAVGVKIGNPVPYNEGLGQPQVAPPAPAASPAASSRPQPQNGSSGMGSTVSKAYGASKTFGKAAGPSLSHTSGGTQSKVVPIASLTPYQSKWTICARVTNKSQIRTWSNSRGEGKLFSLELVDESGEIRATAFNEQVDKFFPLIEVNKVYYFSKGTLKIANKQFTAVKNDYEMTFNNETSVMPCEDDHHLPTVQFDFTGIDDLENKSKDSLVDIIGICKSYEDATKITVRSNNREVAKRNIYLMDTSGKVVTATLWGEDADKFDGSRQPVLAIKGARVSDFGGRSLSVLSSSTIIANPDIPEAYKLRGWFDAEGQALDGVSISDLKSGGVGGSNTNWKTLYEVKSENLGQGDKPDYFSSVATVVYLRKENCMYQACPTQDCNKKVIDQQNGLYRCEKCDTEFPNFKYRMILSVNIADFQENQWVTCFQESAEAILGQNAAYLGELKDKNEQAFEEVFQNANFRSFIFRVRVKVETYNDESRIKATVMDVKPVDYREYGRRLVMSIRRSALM

Target: E3 ubiquitin-protein ligase Rad18 (human (endogenous in 143B)) (UniProt Q9NS91)
Experiment: affinity purification with mass spectrometry; lysate of 143B cells treated with 5 μM doxorubicin for 6 h, immunoprecipitated with an anti-Rad18 antibody; SDS-PAGE, silver staining, band cut out for mass spectrometry

binding | Substance
binds | PCNA (from UniProt P12004 1-261)
binds | RPA1 (from UniProt P27694 1-616)

Results are given in words; binding and its absence hold for the method and conditions named. Binding seen in cells or lysates may run through a third protein. These calls come from enrichment with a bait or labelling near it, and not all partners need be listed.
